# From PubChem BioAssay AID1439 (NMMLSC, 2008)
# By UniProt entry, the sequences of proteins in these tests, tags left out.
# UniProt P09471, whole entry, looked up: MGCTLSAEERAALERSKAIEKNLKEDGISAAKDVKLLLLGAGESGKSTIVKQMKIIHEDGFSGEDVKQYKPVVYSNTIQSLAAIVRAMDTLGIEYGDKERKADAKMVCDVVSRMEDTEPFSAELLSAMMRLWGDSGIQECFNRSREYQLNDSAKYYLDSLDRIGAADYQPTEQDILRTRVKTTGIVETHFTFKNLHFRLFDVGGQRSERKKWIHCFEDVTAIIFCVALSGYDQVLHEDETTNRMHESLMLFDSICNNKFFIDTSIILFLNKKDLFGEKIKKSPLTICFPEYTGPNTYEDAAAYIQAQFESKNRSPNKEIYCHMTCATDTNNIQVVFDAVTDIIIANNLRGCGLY
# The campaign covered roughly 220,000 compounds. About 770 (0.35%) were called active. The shares of active, inactive and inconclusive entries below differ from those in the screen. No stated cut-off is given here; in the data, active means binding response below about 49% or above about 150%; inconclusive means no clear call, values can overlap the other calls; inactive means in between.
# Molecular target: Guanine nucleotide-binding protein G(o) subunit alpha (Homo sapiens) (UniProt P09471)
# Assay: RGS7-Galphao binding modulators, primary screen, biochemical, multiplexed bead flow cytometry (AID 1439);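 further: fluorescent Galphao held in activated GDP-AlF4 state binding bead-coupled RGS7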
# Details: at 10 µM, actives lie on both sides
row,SMILES,binding response (% of control)
1,CCOc1ccc2ncc(C(=O)c3ccc(OC)cc3)c(N3CCN(CC)CC3)c2c1,active: 309% [activator]
2,O=C(O)CCCCCCCCCC[n+]1ccccc1,inconclusive: 81.5%
3,CC(=O)c1cccc(NC(=O)CC2S/C(=N/N=C/c3cccs3)NC2=O)c1 (configuration not stated),inactive: 100%
4,COc1ccc2c(c1)CC/C(=C\c1ccc(C)o1)C2=O,inconclusive: 87.2%
5,Cc1ccccc1-c1oc(C)c(C)[n+]1[O-],inactive: 108%
6,COc1ccc(NC(=S)N(Cc2cccnc2)Cc2cc3cc(OC)c(OC)cc3[nH]c2=O)cc1,inactive: 101%
7,Cc1[nH][nH]c(=O)c1C=NCc1cccs1,inconclusive: 110%
8,Clc1ccc(-c2ccc(C=Nc3ccc(N4CCOCC4)cc3)o2)c(Cl)c1,inconclusive: 129%
9,CCCCc1ccc(NC(=S)NCc2ccc(OC)cc2)cc1,inactive: 96.3%
10,Cn1ncc(SCc2ccccc2)c(Cl)c1=O,inconclusive: 192%
11,OCC(O)C1OC(Nc2ccc(Cl)cc2)C(O)C1O (configuration not stated),inconclusive: 75.6%
12,COc1cccc(Nc2nnc(SCN3C(=O)c4ccccc4C3=O)s2)c1,inactive: 130%
13,Nc1ccccc1-c1nc2ccccc2s1,inconclusive: 91%
14,CCNC(=S)Nc1ccc(OC(F)(F)F)cc1,inconclusive: 108%
15,COc1cc(C(=O)Nc2cccc(-c3nnc(-c4ccco4)o3)c2)ccc1OC(C)=O,inconclusive: 107%
16,Cn1cc(C(=O)N/N=C/c2cccc([N+](=O)[O-])c2)c2ccccc21,inconclusive: 119%
17,COc1ccc2c(Cn3cnc4cc([N+](=O)[O-])ccc4c3=O)cc(=O)oc2c1,inconclusive: -672%
18,Cc1cc(=O)n2c3ccccc3n(CC(O)CN3CCN(Cc4ccccc4)CC3)c2c1C#N (configuration not stated),inconclusive: 73.3%
19,CC1CC1C(=O)OCC(=O)Nc1ccc2[nH]c(=O)[nH]c2c1 (configuration not stated),inactive: 84.8%
20,Cc1ccc(-n2c(SCC(=O)NCCN3C(=O)CSC3=O)nnc2-c2ccccc2)cc1C,inactive: 104%
21,O=C(NCC(=O)N(Cc1ccccc1)C(C(=O)NC1CCCC1)c1ccco1)c1ccco1 (configuration not stated),inactive: 96.7%
22,COc1ccc(N=C2NC(=O)/C(=C/C=C/c3ccccc3)S2)cc1,inconclusive: 103%
23,COc1cccc(CNC(=O)Cn2ncc3c(=O)oc4ccccc4c32)c1,inconclusive: 85.6%

row,SMILES,binding response (% of control)
1,COCc1c(C(=O)N/N=C/c2cccc3ccccc23)nnn1-c1nonc1N,inconclusive: 96.6%
2,N#Cc1c(Cl)cccc1N1CCCC1,inconclusive: 84.3%
3,O=C(Cn1cc([N+](=O)[O-])cn1)Nc1ccn(Cc2c(F)c(F)cc(F)c2F)n1,inactive: 95.6%
4,CCOC(=O)c1sc(Nc2nc3cc4c(cc3s2)OCO4)cc1C,active: 666% [activator]
5,COc1ccc(OCC(O)CNC(=O)Nc2cc(F)ccc2C)cc1 (configuration not stated),inconclusive: 40.2%
6,CC1(C)CC(=O)C2=C(C1)OC(N)=C(C#N)[C@@H]2c1ccccc1[N+](=O)[O-],inconclusive: 96.3%
7,COc1ccccc1Nc1nc(NCCO)nc(N)c1[N+](=O)[O-],inconclusive: 127%
8,CCCCn1c(N)c(NCc2ccccc2OC)c(=O)[nH]c1=O,inconclusive: 105%
9,CC(C)c1ccc(/C=N/NC(=O)c2ccccn2)cc1,inconclusive: 105%
10,Cc1c2c(c(C)n1C)C(C(=O)NC1CCCCC1)N(Cc1ccccc1)C2=O (configuration not stated),inactive: 97.4%
11,Cc1nc(C)c(C(=O)N/N=C/c2cc(Br)ccc2O)s1,inconclusive: 91.3%
12,Cc1ccc(NC(=O)COC(=O)c2cc(-c3cccs3)nn2-c2ccccc2)cc1[N+](=O)[O-],inactive: 101%
13,O=C(CN1CCOCC1)NNc1c2ccccc2nc2ccccc12,inconclusive: 131%
14,CCC(C)C(NC(N)=O)C(=O)Nc1ccc(OCc2ccccc2)cc1 (configuration not stated),inconclusive: 78.2%
15,O=C(Nc1ccc(N2CCOCC2)cc1)C1CCCCN1S(=O)(=O)c1ccccc1 (configuration not stated),inconclusive: 118%
16,NC(N)=Nc1nc2ccccc2o1,inconclusive: 118%
17,CC(=O)N(C)c1ccc(NC(=O)C(Sc2ccccc2)c2ccccc2)cc1 (configuration not stated),inconclusive: 90.8%
18,CC1=CC(=O)C(C(C)C)=C/C1=N/OS(=O)(=O)c1ccccc1,inconclusive: -237%
19,O=C(NCCCn1ccnc1)c1cc(-c2cccc(O)c2)on1,inconclusive: 91.5%
20,CCc1cccc2c(C(=O)CSc3nncn3-c3ccccc3OC)c[nH]c12,inactive: 102%
21,COc1ccc(CC(=O)OCn2nnc3ccccc3c2=O)cc1OC,inconclusive: 101%
22,O=C(CCOc1ccccc1)N1CCN(c2ccc(O)cc2)CC1,inconclusive: 87%
23,COc1cc(C(=O)NNC(=O)Nc2ccc([N+](=O)[O-])cc2)cc(OC)c1OC,inactive: 95.9%

# Rewritten bar-delimited: entries from further up.
row | SMILES | binding response (% of control)
2 | N#Cc1c(Cl)cccc1N1CCCC1 | inconclusive: 84.3%
16 | NC(N)=Nc1nc2ccccc2o1 | inconclusive: 118%

# (further entries)

row,SMILES,binding response (% of control)
1,O=C(O)c1ccc(S(=O)(=O)NC2CC2)cc1,inconclusive: 85%
2,O=C(NC(=S)Nc1ccc(CN2CCOCC2)cc1)c1ccc2c(c1)OCCO2,inconclusive: 68.1%
3,O=C1NC(=Nc2ccccc2)S/C1=C\c1cccnc1,inconclusive: 48.2%
4,CCCOC(=O)C1C2C=CC(C2)C1C(=O)OCC(=O)c1ccccc1 (configuration not stated),inactive: 101%
5,Nc1cnn(Cc2ccc(F)cc2)c1,inconclusive: 90.1%
6,O=C(O)CCCNc1c(C(=O)Nc2ccc(Cl)cc2)cc([N+](=O)[O-])cc1[N+](=O)[O-],inconclusive: 113%
7,O=C(Nc1ccccc1Cl)C1CC(=O)N(c2ccccc2)C1 (configuration not stated),inconclusive: 92.1%
8,O=C(O)c1ccccc1Sc1c([N+](=O)[O-])cc(C(F)(F)F)cc1[N+](=O)[O-],inactive: 107%
9,O=C(O)c1ccccc1C(=O)Nc1ccc(Br)c2cccnc12,inconclusive: 105%
10,C=CCn1c(SCC(C)=O)nnc1-c1ccc2ncccc2c1,inconclusive: 102%
11,O=C(N/N=C/c1cc(Br)c(Br)o1)c1ccc2c(c1)OCCO2,inconclusive: 101%
12,NNC(=O)c1ccc(OCC2CC(c3ccc(Cl)cc3)=NO2)cc1 (configuration not stated),inconclusive: 92%
13,COc1ccc(/C=C/c2cc(C(F)(F)F)on2)cc1,inconclusive: 181%
14,COC(=O)c1ccc(NC(=O)[C@H](C)NC(N)=O)cc1,inconclusive: 157%
15,C/C(=N\NC(N)=S)C1(C)CC2(CC(C)(C)OC2=O)C(=O)O1 (configuration not stated),inconclusive: 50.7%
16,Cn1c(=O)c2c(SCC(=O)NCCc3ccccc3)nc(C3CC3)nc2n(C)c1=O,inconclusive: 93.6%
17,c1ccc(-n2cc(CNCCc3cscn3)c(-c3ccc4c(c3)OCO4)n2)cc1,inactive: 107%
18,COc1cccc(NC(=O)NCc2c(-c3ccccc3)noc2C)c1,inconclusive: 88.4%
19,N#Cc1ccccc1S(=O)(=O)N1CCN(CC(O)c2ccccc2)CC1 (configuration not stated),inactive: 97.5%
20,COc1ccc(S(=O)(=O)Nc2ccc3oc4ncccc4c(=O)c3c2)cc1OC,inconclusive: 110%
21,COc1ccc(-n2cc(CNCC3CC(=O)N(C4CC4)C3)c(-c3ccccc3Cl)n2)cc1 (configuration not stated),inactive: 98.2%
22,O=C(Cn1ncc2c1-c1ccccc1OC2)N1CCN(Cc2ccccc2)CC1,inconclusive: 40%
23,O=C(Nc1nccs1)[C@@H]1CCCN1C(=O)c1cccs1,inconclusive: 96.2%

# Three entries out of the list, sorted by molecular weight, smallest number first.
row,SMILES,binding response (% of control)
5,Nc1cnn(Cc2ccc(F)cc2)c1,inconclusive: 90.1%
12,NNC(=O)c1ccc(OCC2CC(c3ccc(Cl)cc3)=NO2)cc1 (configuration not stated),inconclusive: 92%
8,O=C(O)c1ccccc1Sc1c([N+](=O)[O-])cc(C(F)(F)F)cc1[N+](=O)[O-],inactive: 107%

# Additional structures

row,SMILES,binding response (% of control)
1,Cc1ccc(Cl)cc1NC(=O)c1cc2ccccc2cc1O,inconclusive: 127%
2,N#CC(C#N)=C1C(=O)N(CCN2CCCCC2)c2ccccc21,inconclusive: 57.1%
3,Cc1sc2ncn(CC(=O)NCCCC(=O)N3CCN(c4ncccn4)CC3)c(=O)c2c1C,inactive: 135%
4,CCCCn1c(/N=C/c2ccc(N(C)C)cc2)nc2ccccc21,inactive: 104%
5,O=C(NCc1ccc(N2CCCC2=O)cc1)c1ccc(F)cc1,inconclusive: 118%
6,C=CCOCCN(CC)CC,inconclusive: 84.9%
7,O=C(Nc1ccc(S(=O)(=O)Nc2nccs2)cc1)c1cc(-c2ccncc2)nc2ccccc12,inconclusive: 2.46%
8,Cn1c(=O)[nH]c(=O)c2c1nc(NC1CCCCC1)n2CCO,inconclusive: 110%
9,CCOc1c(Cl)cc(CNc2ccc(N3CCCC3)cc2)cc1OC,inconclusive: 109%
10,CC(=O)N(/C=C1\SC(=S)N(c2ccccc2)C1=O)c1ccccc1,inconclusive: 110%
11,O=C(c1cccc(S(=O)(=O)N2CCc3ccccc32)c1)N1CCN(c2ccccn2)CC1,inconclusive: 87.4%
12,CC(=O)NCCc1nc2ccccc2n1CCOc1ccc(C)cc1,inconclusive: 106%
13,CCCCc1ccc(NC(=O)N[C@@H](CC(C)C)C(=O)O)cc1,inconclusive: 120%
14,COc1ccc(Cl)cc1NC(=O)CSc1nnc(CNC(=O)c2ccco2)o1,inconclusive: 112%
15,CS(=O)(=O)N(CC(=O)N1CCCC1)Cc1ccc(Cl)cc1,inactive: 96.8%
16,O=C(O)CC(CC(=O)Nc1ccc(-n2ccc(C(F)(F)F)n2)cc1)c1ccccc1 (configuration not stated),inconclusive: 129%
17,CCN(CC)P(=O)(Nc1ccccc1Br)c1ccc(N(C)C)cc1NC(=O)c1ccco1 (configuration not stated),inactive: 104%
18,CCCCCCCNc1cccc(C)c1,inconclusive: 98.8%
19,O=C(Nc1ccc(Cl)c(Cl)c1)Nc1nccs1,inconclusive: 114%
20,N#C/C(=C\c1ccc(-c2nc3ccccc3s2)o1)C(N)=O,inconclusive: 87%
21,CCOC(=O)C(=O)c1c(C)cc2ccccn12,inconclusive: 121%
22,Cc1cc(C)n(-c2ncc3c(n2)N(C)CCOC3=O)n1,inconclusive: 102%
23,CCOC(=O)NC(=O)C(=CNNc1ncc(C(F)(F)F)cc1Cl)C(=O)NC(=O)OCC,inconclusive: 79%
